Measured values taken from the RNAGym collection of RNA variant scans (doi:10.1126/science.aae0568).
Variants at the floor of the assay are shown more often than the library holds them.

B1: tRNA (parent)
chain: GUUCCGUUGGCGUAAUGGUAACGCGUCUCCCUCCUAAGGAGAAGACUGCGGGUUCGAGUCCCGUACGGAACG

Variants of: B1
Assay: yeast fitness relative to wild type (ratio to wild type); higher = fitter; tRNA-Arg(CCU), competitive growth, 37 C, YPD
Procedure, shortened: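 For this measurement, the tRNA-Arg(CCU) gene was varied by chemical synthesis at a 3% per-site mutation rate across 69 sites, and each variant was placed at the native genomic locus in Saccharomyces cerevisiae. The pooled strains went through a 24-hour competition in YPD at 37°C in six parallel replicates, with amplicons from start and end populations read by 100-nucleotide paired-end sequencing. Darwinian fitness relative to wild type followed from the change in each genotype's frequency. Genotypes needed ≥ 100 starting reads, and estimates < 0.5 were set to 0.5.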

GUUUCGUUGGCGUAAUGGUAACGCGUCUCCCUCCUAAGGGGAAGACUGCGGGUUCGAGUCCCAUACAGAACG and GUUCCGUUGGCGUAAUGGUAACGCGUCUUCCUCCUAAGGAGAAGACUGUGGGUUGGAAUCCCGUACGGAACG cannot be ordered by yeast fitness: ≤ 0.5 for the first, ≤ 0.5 for the second.

GUUCUGUUGGCGUAAGGGUAACGCGUCUCCCUCCUAAGGGGUAGACUGCGGAUUCGAGUCCCGUACGGAACG and GUUCCGUUGGCGAAAUGGUAACGCGUCUCCAUCCUAAGGGGAAGACUGCGGGUGCGAGACCCAUACGGAACG cannot be ordered by yeast fitness: ≤ 0.5 for the first, ≤ 0.5 for the second.

First: GUUCCGUUGGCGUACUGGUAACGCGUCACCCUCCUAAGGAGAAGACUGCGGGUUCGAGUCCCGUACGGAACG
Second: GUUCCGUUGGCGUAAUGGUAACGCGUCUCCCUCCUAAGGAGAAGACUGGGGGUUUGAGUCCCGUUCGGAACG
The yeast fitness of the first is higher: 0.622 for the first, ≤ 0.5 for the second.

First: GUUCCAUUGGCGUAAUGGUAACGCGUCUCCCUGGUAAGGAGAAGACUGCGGGUUCAAGUCACGUACGGAACG
Second: GUUCCGUUGGUGUAAUGGUAACGCGUCUCCCUCCUAAGGAGAAGGCUGAGGGUUCGAGUCCCGUACGGAACG
The yeast fitness of the first is lower: ≤ 0.5 for the first, 0.567 for the second.

GUUCCGUUGGCGUAAUGGUAACGCGUCUCCCUUCUGAGGAGAAGACUGCAGGUUCGAGUCCCGUACGGAACG and GUUCCGUUGGUGUAAUGGUAACCCGUCUCCCUCCUAAGGAGAAGACUGCGGGUUCGAGUCCCGUACGGCACG cannot be ordered by yeast fitness: ≤ 0.5 for the first, ≤ 0.5 for the second.

Compared with GUUCCGUUGGUGUAAUGGUAACGCGUCUCCCUCCUAAGGAGAAGACUGCGGGUUCGAGAUCCGUACGGAACG, GUUUCGUUGGCGUAGUGGUAAUGCGUCUCCCUCCUAAGGAGAACACUGCGGGUUCGAGUCCCGUACGGAACG is lower in yeast fitness: 0.543 for the first, ≤ 0.5 for the second.

GUUCCGUUGGCGUAAUGGUAACGCGUCUCCCUCCUAAGGAGUAGACUGCGGGUUCGAGUCCCGAACAGAACG and GUUCCGUUGGCGUAAUGGUAACGCGUUUGCCUCCUACGGAGAAGACUGCGGGUUCGAGUCCCGUACGGAACG cannot be ordered by yeast fitness: ≤ 0.5 for the first, ≤ 0.5 for the second.

First: GUUCCGCUGGCGUAAUGGUAACGCGUCUCCCUCUUAAGGAGAAGACUGCGGCUUCGAGUCCCGUACGGAACG
Second: GUUCGGUUGGCGUAAUGGUAACGCGUCUCGCUCCUAAGGAGAAGACUGCGGGUUCGAGUCCCGUACGGCACG
The yeast fitness of the first is higher: 0.579 for the first, ≤ 0.5 for the second.

GUUCCGGUAGCGUAAUGGUAACGCGUCUCCGUUCUGAGGAGAAGACUGCGGGUUCGAGUCCCGUACGGAACG and GUUCAGUUGGCAUAAUGAUAACGCGUCUCCCUCCUAAGGAGAAGACUGCGGGUUCGGGUCCCGUACGGAACG cannot be ordered by yeast fitness: ≤ 0.5 for the first, ≤ 0.5 for the second.

GUUCCGUUGGCGUAAUGGUAACGCGUCUCCCUCCUAAGGUGAAGACUGCGGCUUCGAGUGCCGUACGGAACG and GUUCCGUUGGCGUAAUGGUAACGCGUCUCCUUGCUAAGGAGAAGACUGCGGGUUCGAGUCCCGUACGGACCG cannot be ordered by yeast fitness: ≤ 0.5 for the first, ≤ 0.5 for the second.

Compared with GUUCCGUUGGCGUAAUGGUAACGUGUCUCCCGCCUAAGGUGAAGACUGCGGGUUCGAGUCCCGUACGGAACG, GUUCCGUUGGGGUAAUGGUAACGCGUCUCCCUCCUAAGGAGAACACUGCGGGUUCGAGUCUCGUACGGAACG is lower in yeast fitness: 0.513 for the first, ≤ 0.5 for the second.

GUUCCGUUGGCGUAAUGGUAACGCGACUCCCUCCUAAGGAGAAGACUAGGGGUUCGAGUCCCGUACGGAUCG and GUUGCGUUGGCGUAAUGGUAGCGAGUCUUCCUCCUAAGGAGAACACUGCGGGUUCGACUCCCGUACGGAACG cannot be ordered by yeast fitness: ≤ 0.5 for the first, ≤ 0.5 for the second.

GUUGCGUUGGCGUAAUGGUAACGCGUCUCACUCCUAAGGAGAAGACUGCGGGUUCGAGUCCGGUACGGAACG and GUUACGUUGGCGUAAUGGUAACGCGUCUUCCUCCUAGGCAGAAGACUGUGGGUUCGAGUCCCGAACGGAACG cannot be ordered by yeast fitness: ≤ 0.5 for the first, ≤ 0.5 for the second.

GUUCAGUUGGCGUGAUGGUAACGCAUCUCACUCCUAAGGAGAAGACUGCGGGUUCGUGUCCCGUACGGAACG and GUUCCGUUGGCGUAAUGGUAACGCGUCUCGCUCCUAAGGAGAAGACUGCGGGCUCGAGUAACGUAGGGAACG cannot be ordered by yeast fitness: ≤ 0.5 for the first, ≤ 0.5 for the second.

GUUCCGUUGGAGUAAUGGUAACGCGUCUCCCUCCUAAGGAGAUGACUGCGGGUUCGAGUCCCGUAGGGAACG and GUUCCGUUGGCGUAAUGGUAACGCGUUUCCCUCCUAAGGGGAAGACUGUGAGUUCGAGUCCCGUACGGAACG cannot be ordered by yeast fitness: ≤ 0.5 for the first, ≤ 0.5 for the second.

Compared with GUUCCGUUGGUGUAAUGGUAACGCGUCUCCCUCCUAAGGAGAAGACUGCGGAUUCGAGUCCCGUACGGAACG, GUUCCGUUGGCGUAAUGGUAACGGGUCUCCCUCGUAAGGAGAAGACUGCGGGUUCGAGUCCCGUACGAAUCG is lower in yeast fitness: 0.827 for the first, ≤ 0.5 for the second.

GUUCCGUUGGCGUAUUGGUAACGCGUCUCCCUCCUAAGGACUAGACUGCGGGUUCGAGUCCCGCACGGAACG and GUUCCGAUGGCGUAAUGGCCACGCGUCUCCCUUCAAAGGAGAAGACUGAGGGUUCGAGUCCCGUACGGAACG cannot be ordered by yeast fitness: ≤ 0.5 for the first, ≤ 0.5 for the second.

GUUCCGUUAGCGUAAUGGUAACGGGUCUCCCUCCUACGGAGAAGACUGCGGGUUCGAGUCCCGUACGGAUCG and GUUCCGCUGGCGUAAUGGUAACGCGUCUCCCUCCUAAGGCGAAGACUGCAGGUUCGAGUCCCGUACGGAACG cannot be ordered by yeast fitness: ≤ 0.5 for the first, ≤ 0.5 for the second.

GUUCUGUUGGCGUAAUGGUUAUGCGUCUCCCUCCUAAGGAGAAGACUGCGGGUUCCAGUCCCGUACGGAACG and GUUACGUUGGCGUAAUGUUAACGCGUCUCCCUCCUAAGGAGAAGACUGCGGGUUCGAGUACCGUACGGAACG cannot be ordered by yeast fitness: ≤ 0.5 for the first, ≤ 0.5 for the second.

GUUCCGUUGGCGUAAUGAUAACGCGUCUCCCUCCUAAGGAGAAGAUUGCGGGUUCAAGUCCCGUACGGAGCG and GUUCCGUUGGCGUAAUGGUAACGCGUCAGCCUCCUAAGGAGAAGACUGCGGGUUCGAGUCCCGUACGGUACG cannot be ordered by yeast fitness: ≤ 0.5 for the first, ≤ 0.5 for the second.

Compared with GUUCGGUUGGCGUAAUGGUAACGCGUCUCCCUCCUAAGGAGAAGACUGCAGGUUCGAGUCCCGUACGGAACG, GUUCCGUUGGCGUAAGGGUAACGCGGCUCCCUCCUAAGGAGAAGUCUGCGGGUUCGAGUCCCGUACGGAGCG is lower in yeast fitness: 0.835 for the first, ≤ 0.5 for the second.

First: GUUCCGUUGGCGUAAUGGUAACGCGUCUCACUCCUAAGAAGGAGACUGCGAGUUCGAGUCCCGUACGGAACG
Second: GUUAGGUUGGCGUAAUGGUAACGCGUCUCCCUCCUAAGGAGAAGACUGCGGGUUCGUGUCCCGUACGUAACG
The yeast fitness of the first is lower: ≤ 0.5 for the first, 0.575 for the second.

GUUCCGUUGGCGUGAUGCUAACGCGUCUGCCUCCUAAGGAGAAGACUGCGGGUUCCAGUCCCGUAUGGAACG and GUUCCGUCGGAGUAAUGGUAACGCGUCUCACUCCUAAGGAGAAGACUGCGGGUUCGAGUCCCGUACGGAACG cannot be ordered by yeast fitness: ≤ 0.5 for the first, ≤ 0.5 for the second.

GUUCCGUUGCCGUAAUGGUAAUGCGUCUCCCUCCUAAGGAGAAGACUGCGGGUUCGAGACCCGUACGGAACG and GUUACGUUGGCGUUAUGGUAACGCGUCUCACUCCUAAGGAGAAGACUGCGGGUUCGAGUCCCGUACCGAACG cannot be ordered by yeast fitness: ≤ 0.5 for the first, ≤ 0.5 for the second.

GUUCCGUUCGCGUAAUGGUAACGCGUCUCCCUCCUAAGGCGCAGACUGCGGGUUCGAGUCCCGUACGGCCCG and GUUCCGUUGGCGUAAGGGUAACGUGUCUCCGUGCUAAGGAGAAGACUGCGGGUUCGAGUCCAGUACGGAACG cannot be ordered by yeast fitness: ≤ 0.5 for the first, ≤ 0.5 for the second.

GUUCUGUUGGCGUAAUGGUAAUGCGUCUCCCUUCUAAGGAGAAGACUGCGGGUUAGAGUCACGUACGGAACG and GUUCCCUUGGCGUACUGGUAACGCGUCUCCCUCCUAAGGAGAAGACUGCGGGUUCAAGUCGCGUACGGAACG cannot be ordered by yeast fitness: ≤ 0.5 for the first, ≤ 0.5 for the second.

GUUCCGUUGGCGUAAUGGUAACGCGUCUCCCUCCUAAGGAAAAGACUGCGGGUUCGAGUUUCGUACGGAACG and GUUCCGUUGGAGUAAUGGUAACGCGUCUCUGUCCUAAGGAGAAGACUGCGGGUUCGAGUCCCGUACGGAACG cannot be ordered by yeast fitness: ≤ 0.5 for the first, ≤ 0.5 for the second.

GUUCCGUUGGCGUAAUGGUAACGCGUCUCCCUUCUAAAGAGAAGAUUGCGGGUUCGAGUCCCGUACAGAACG and GUUCCGUUGGGGUAAUGGUAACGCGUCUCCCUGCUAAGGAGAAGACUGCGGGGUCGAGUCCCGUACGGAACG cannot be ordered by yeast fitness: ≤ 0.5 for the first, ≤ 0.5 for the second.

GGUCCGUUGGCGUAAUGGUAACGCGUCUCCCUCCUAAGGAGACGACUGCGGGUUCGAGUCCGAUAGGGGACG and GUUCCGUUGGCGUAAUGGUGACGCGUCUCCCUCCUAAGGAGAAGACUGCGGGUUUGAGUCACGUACGGAACG cannot be ordered by yeast fitness: ≤ 0.5 for the first, ≤ 0.5 for the second.

Compared with GUUUCGUUGGCGUAAUGGUAACGCGUCUCGCUCCUAAGGUGAAGACUGCGGGUUCGAUUCCCGUACGGAACG, GUUCCGUUGGCGUAAUGGUAACGCGUCACCCUCCUAAGGAGAAGACUGCGGGUACGAGUCCCGUACGGAACG is higher in yeast fitness: ≤ 0.5 for the first, 0.594 for the second.

GUUCUGAUGGCGUAAUGGUAACACGUCUCCCUGCUAAGGAGAAGACUGCGGGUUCGAGUCCCGUACGGAACG and GUUCCGUUGACGUACUGGUAACCCGUCUCCCUCCUAAGGAGAAGCCUGCGGGUUCGAGUCCCGUAGGGAACG cannot be ordered by yeast fitness: ≤ 0.5 for the first, ≤ 0.5 for the second.

GUUCCGUUGGCGUAAUGGUAACGAGUCUCCCUCCUAAGGAGAAGACUGUGGGUUCGAGUCCCGUUCGGAACG and GUUCGGUUGGCGUAAUGGUAACGCGUCUCCCACCUAAGGAGAAGACUCCGGGUUCGAGUCCUGUACGGAACG cannot be ordered by yeast fitness: ≤ 0.5 for the first, ≤ 0.5 for the second.

GUUCCGUUGGCGUAAUGGUAACGCGUCUCCCUCAUAAGGUGAGGACUGCGGGUUCGAGUCCUGUACGGAACG and GUUCCGUUGGCGUAAUGGCAACGCGUCUCCCUCCUAAGGAGAAGACUGCGAGUUCGGAUCCCGUACGGAACG cannot be ordered by yeast fitness: ≤ 0.5 for the first, ≤ 0.5 for the second.

Going from GUGCCGUUGGCGUAAUGGUAACGCGUCUGCGUCCUCAGGAGAAGACUGCGGGUUCGAGUCCCGUACGGAACG to GUUCCGUUGGCGUAAUGGUAACGCGUCUCCUUCCUAAGGAGGAGACUGCGGGUUCGAAUCCCGUACGGAACG, the yeast fitness rises from ≤ 0.5 to 0.716.

Going from GUUCCGUUGGCGUAUUGGUAACGCGUCUCCCUCCUAAGGAGAAGACUGCGGGUUCGAGUCCCGUACCGAACG to GUUCCGUUGGCGUAAUGGUAACACGUCUCCCUCCUCAGGAGAAGACUGCGGGUUCGAGUCCCGUACGGAACG, the yeast fitness falls from 0.657 to 0.586.

GUUCCGUUGGCGUAGUGGUAACGCGUCUCCCUCCAAAGGAGAAGACUGCGGGUUCGAGUCCCGUCCGGAACG and GUUCCGUUGGCGUAAUGGUGCCGCAUCUCCCUCCUAAGCAGAAGACUGUGGGUUCGAGUCCCGUUCGGAACG cannot be ordered by yeast fitness: ≤ 0.5 for the first, ≤ 0.5 for the second.

GUUCCGUUGGCGUAAUGGUAACGCGUCUCCCUCCUAAGGAGAAGACUGCGCGUUCGAGUCCCGUCGGGAACG and GUACAGUUGGCGUACUGGUAACGCGUCUACCUCCUAAGGAGCAGGCUGCGGGUUCGAGUCCCGUACGGAACG cannot be ordered by yeast fitness: ≤ 0.5 for the first, ≤ 0.5 for the second.

In the case of GUUCCGUUGGCGUAUUGGUAACGCGUCUCCCUACUAGGGAGAAGACUGCGGGUUCGAGUCCCGUACGGAACG, the yeast fitness is reported as ≤ 0.5.
